PubChem BioAssay AID652259 – Drosophila RNAi Screening Center | 2013
The screen tested about 22,000 reagents; this is a random part of those with a known target gene and a result. Of all reagents, 233 (1.1%) got an active call. 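Light values are raw, unnormalised plate reads; the ratio scores behind the reporter calls were not deposited.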 Names joined by + are all predicted targets of the reagent. Not given: the amount of reagent, the time to read-out, the dose of the treatment.

Purpose: 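Identify new Wingless signalling regulators in fly cells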 (primary screen)
Cells: Drosophila clone 8 imaginal disc epithelial cells
Reagents: long dsRNA against Drosophila genes
Challenge: pathway stimulated by co-transfected Wingless expression plasmid
Measured: 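Firefly luciferase from a tcf-site Wingless reporter, measured alongside co-transfected Renilla luciferase that tracks transfection; pathway stimulated by a Wingless plasmid; the firefly-to-Renilla ratio is not deposited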
Scale: firefly reporter light: higher = more Wg reporter light, before normalisation; Renilla control light: higher = more transfected or surviving cells
Rule for the call: 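Strong candidates differ from their plate mean by at least two out of four per-plate statistical tests; weak candidates meet just one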
Meaning of the calls: active = candidate regulator (raises or lowers reporter); inactive = not a candidate

no.	predicted target	dsRNA	reporter change call, replicate 1	firefly reporter light, replicate 1	firefly reporter light, replicate 2	Renilla control light, replicate 1	Renilla control light, replicate 2	activity call
1	Fmr1 (Fragile X messenger ribonucleoprotein 1)	DRSC16674		18625		4136		inactive
2	cta (concertina)	DRSC03769		8368		2747		inactive
3	Crys (Crystallin)	DRSC03294		8723		2375		inactive
4	nvd (neverland)	DRSC22139		7.16e5	7.65e5	3.04e5	3.26e5	inactive
5	scaf6 (SR-related CTD associated factor 6)	DRSC10075		6464		2775		inactive
6	scaf6 (SR-related CTD associated factor 6)	DRSC10676		6256		2950		inactive
7	scaf6 (SR-related CTD associated factor 6)	DRSC10678		4995		1094		inactive
8	Rexo5 (RNA exonuclease 5)	DRSC10981		1337	9628	661	2874	inactive
9	gcm2	DRSC03538		2832	6900	779	2934	inactive
10	CG1785	DRSC18139		2660	4212	1170	1744	inactive
11	Cib2 (Calcium and integrin binding family member 2)	DRSC04535		2330	8919	858	2784	inactive
12	CG31140	DRSC13649		6298		1692		inactive
13	CG31140	DRSC14603		4513	8208	1641	2507	inactive
14	CG31140	DRSC15904		22913		18289		inactive
15	CG14787	DRSC18606		14691		13744		inactive
16	rec (recombination-defective)	DRSC14998		12194		2569		inactive
17	rec (recombination-defective)	DRSC15656		14316		3394		inactive
18	Grp170 (Grp170 co-chaperone)	DRSC18524		3815	5697	1512	2864	inactive
19	Spt3	DRSC15465		18618		5525		inactive
20	Tango4 (Transport and Golgi organization 4)	DRSC19786		2688	5824	584	1209	inactive
21	CG17195	DRSC15188		12456		11571		inactive
22	CG15210	DRSC19656		24069		10418		inactive
23	hkb (huckebein)	DRSC12377		18012	7.45e5	5885	3.32e5	inactive
24	Asx (Additional sex combs)	DRSC05924		6923		1108		inactive
25	Spt7	DRSC19997		3376	6900	1368	2597	inactive
26	CG5611	DRSC15843		5685		2960		inactive
27	t-Grip91 (testis-specific gamma-tubulin ring protein 91)	DRSC01506		19801		9312		inactive
28	Atet (ABC transporter expressed in trachea)	DRSC00263		3644	4333	1281	1619	inactive
29	robo2 (roundabout 2)	DRSC00377		4016	10836	1312	3749	inactive
30	robo2 (roundabout 2)	DRSC00378		2448	9729	1241	3170	inactive
31	robo2 (roundabout 2)	DRSC00686		2533	8279	969	2832	inactive
32	robo2 (roundabout 2)	DRSC00691		6314		3108		inactive
33	Pyroxd1 (Pyridine nucleotide-disulfide oxidoreductase domain 1)	DRSC02098		2772	6226	848	2229	inactive
34	Or74a (Odorant receptor 74a)	DRSC11245		6355		2589		inactive
35	grass (Gram-positive Specific Serine protease)	DRSC15911		6394		2357		inactive

Continued (9 carried over from the part before).
no.	predicted target	dsRNA	reporter change call, replicate 1	firefly reporter light, replicate 1	firefly reporter light, replicate 2	Renilla control light, replicate 1	Renilla control light, replicate 2	activity call
27	t-Grip91 (testis-specific gamma-tubulin ring protein 91)	DRSC01506		19801		9312		inactive
28	Atet (ABC transporter expressed in trachea)	DRSC00263		3644	4333	1281	1619	inactive
29	robo2 (roundabout 2)	DRSC00377		4016	10836	1312	3749	inactive
30	robo2 (roundabout 2)	DRSC00378		2448	9729	1241	3170	inactive
31	robo2 (roundabout 2)	DRSC00686		2533	8279	969	2832	inactive
32	robo2 (roundabout 2)	DRSC00691		6314		3108		inactive
33	Pyroxd1 (Pyridine nucleotide-disulfide oxidoreductase domain 1)	DRSC02098		2772	6226	848	2229	inactive
34	Or74a (Odorant receptor 74a)	DRSC11245		6355		2589		inactive
35	grass (Gram-positive Specific Serine protease)	DRSC15911		6394		2357		inactive
36	CG17159 + CG17162	DRSC20899		15541		8769		inactive
37	CG17159 + CG17162	DRSC20900		46755		9571		inactive
38	CG14423	DRSC17920		13736		8877		inactive
39	slmo + CG34179	DRSC03143		15314		6024		inactive
40	Usp2 (Ubiquitin specific protease 2)	DRSC20632		4344	10818	1588	3223	inactive
41	Usp2 (Ubiquitin specific protease 2)	DRSC20633		25290		8186		inactive
42	CR40282 (pseudo)	DRSC07814		5707		2106		inactive
43	CG2209	DRSC19843		18373		8455		inactive
44	Spn77Ba (Serpin 77Ba)	DRSC10693		3123		971		inactive
45	CG11034	DRSC02121		1936	6341	996	2763	inactive
46	CG11034	DRSC02122		2536	6027	1072	2304	inactive
47	N (Notch)	DRSC18685		15480		9296		inactive
48	Rpn1 (Regulatory particle non-ATPase 1)	DRSC11274		4629		1049		inactive
49	arg (arginase)	DRSC18737		2736	11169	1081	3292	inactive
50	CG6283	DRSC16009		6826		2699		inactive
51	Jhbp4 (Juvenile hormone binding protein 4)	DRSC14222		15889		4433		inactive
52	CG32236	DRSC08117		3782		1939		inactive
53	CG7551	DRSC10876		7029		3650		inactive
54	CG15711	DRSC06582	Wg reporter activity lowered	6469		1975		inactive
55	crq (croquemort)	DRSC00810		3676	7321	1297	2848	inactive
56	CG11885	DRSC00329		5065		1561		inactive
57	pre-mod(mdg4)-W + pre-mod(mdg4)-Y + mod(mdg4) + 3 more	DRSC16328		38200		8793		inactive
58	E(z) (Enhancer of zeste)	DRSC11147		6690		2666		inactive
59	CG43064	DRSC09133		2185		777		inactive
60	CG13727	DRSC10055		8349		3907		inactive
61	Snr1 (Snf5-related 1)	DRSC12369		9980		2484		inactive
62	CG11563	DRSC14327		21932		15507		inactive
63	aly (always early)	DRSC08707		7698		4204		inactive
64	aly (always early)	DRSC21784		4.05e5	4.26e5	1.47e5	1.48e5	inactive
65	RpL41 (Ribosomal protein L41)	DRSC22958		5.89e5	6.56e5	2.76e5	80877	inactive
66	CG34205	DRSC04149		3028	11312	1000	3957	inactive
67	CG34205	DRSC22823		5.51e5	5.11e5	2.35e5	2.98e5	inactive
68	Pex13 (Peroxin 13)	DRSC06877		14824		4442		inactive
69	CG43193 (retired record)	DRSC20426		3213		1993		inactive
70	CG8539	DRSC10988		10288		3990		inactive
71	CG8539	DRSC21798		2.46e5	4.12e5	1.19e5	1.73e5	inactive
72	bsk (basket)	DRSC03499		13531		4213		inactive
73	Pgd (Phosphogluconate dehydrogenase)	DRSC18697		3339	4295	1240	1499	inactive
